Laboratory results: patent publication US5523314A, “Compounds useful as hypoglycemic agents and for treating Alzheimer's disease” (priority 1994, dated 1996)
Values joined by “and” are separate entries in the source; they are usually repeats but may differ in a detail not shown here. Identical values can stand only once. At least one read-out could not be matched to a standard name with certainty.

Test system: blood glucose level
Test: Hypoglycemic activity in obese diabetic mice (Table 1)
Type: in vivo, male viable yellow obese-diabetic mice
Details: intraperitoneal
Experimental: The hypoglycemic activity of the compounds of the present invention was determined by testing the efficacy of the compounds in vivo in male viable yellow obese-diabetic mice. The test procedure is described in detail below.
Test formulations were prepared by dissolving the test compound in a saline solution containing 2% Emulphor (a polyoxyethylated vegetable oil surfactant from GAP Corp.) to provide the dose level desired. Each test formulation was administered to six viable yellow obese-diabetic mice intraperitoneally at the beginning of the experiment. Blood glucose levels were determined immediately before the first dose and at 2 and 4 hours thereafter using glucose oxidase. A mean was taken of the 6 values obtained before the first dose and at the 2 and 4 hour intervals. In Table 1, Column 1 provides the example number of the test compound, Column 2 provides the dose level of compound tested, and Columns 3 and 4 provide a measurement of the test animal's blood glucose level 2 and 4 hours after test compound administration, respectively, as a percentage of the test animal' s pre-administration blood glucose level.

For CCCCOc1ccc(C=C2SC(=S)NC2=O)cc1OC.[Na] [Example 52, 5-[(3-methoxy-4-butoxyphenyl)methylene]-2-thioxo-4-thiazolidinone, sodium salt], the “Percent of Initial Blood Glucose Level After 2 hrs.” value (50 mg/kg) was 73 ± 3%.

For CCCCCOc1ccc(C=C2SC(=S)NC2=O)cc1OC.[Na] [Example 57, 5-[(3-methoxy-4-pentoxyphenyl)methylene]-2-thioxo-4-thiazolidinone sodium salt], the “Percent of Initial Blood Glucose Level After 2 hrs.” value (25 mg/kg, sodium salt) was 67 ± 7% and 79 ± 10%, the “Percent of Initial Blood Glucose Level After 4 hrs.” value (25 mg/kg, sodium salt) was 66 ± 7% and 70 ± 4% and the “Percent of Initial Blood Glucose Level After 2 hrs.” value (50 mg/kg, sodium salt) was 63 ± 6% and 69 ± 5%. The “Percent of Initial Blood Glucose Level After 4 hrs.” value (50 mg/kg, sodium salt) was 58 ± 7% and 63 ± 7%.
